PubChem BioAssay AID493246 – Drosophila RNAi Screening Center | 2011

- Test: 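Identify essential fly genes by loss of cell viability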 (primary screen)
- System: Drosophila Kc and S2R+ cells
- Reagent: long dsRNA against Drosophila genes
- Detection: 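Cell number per well after knock-down, printed as raw plate values; calls were based on per-plate z-scores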
- Scale: Kc cell number and S2R+ cell number: higher = more cells remaining
- Hit rule: 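Counted as a hit if cell number falls by a z-score of at least 3 within its plate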
The screen tested about 21,000 reagents; below is a random part of those with a known target gene and a result. Over the whole deposit, 429 (2%) were called active. 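Values are raw and not normalised between plates; calls rest on per-plate z-scores that were not deposited.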 Unmarked entries are inactive. No sequences are given here. The record does not give: the amount of reagent, the time to read-out.

Target gene | amplicon | Kc cell number, rep 1 | Kc cell number, rep 2 | S2R+ cell number, rep 1 | S2R+ cell number, rep 2
Xpd (Xeroderma pigmentosum D) | DRSC04666 | 1.56e6 | 1.61e6 | 1.17e6 | 1.25e6
CG9514 | DRSC20190 | 1.46e6 | 1.50e6 | 1.13e6 | 1.17e6
CG9514 | DRSC20191 | 1.54e6 | 1.51e6 | 1.08e6 | 1.15e6
CG32720 | DRSC17529 | 1.30e6 | 1.55e6 | 1.05e6 | 1.16e6
CG11110 | DRSC06037 | 1.61e6 | 1.45e6 | 1.06e6 | 1.41e6
Ntmt (N-terminal methyltransferase) | DRSC06624 | 1.85e6 | 1.83e6 | 1.49e6 | 1.66e6
Alg7 | DRSC02833 | 1.44e6 | 1.62e6 | 1.23e6 | 1.34e6
Alg7 | DRSC02834 | 1.62e6 | 1.68e6 | 1.33e6 | 1.50e6
CG15422 | DRSC00436 | 1.65e6 | 1.60e6 | 1.21e6 | 1.38e6
Ccn | DRSC09504 | 1.42e6 | 1.56e6 | 1.12e6 | 1.24e6
Ccn | DRSC09506 | 1.31e6 | 1.42e6 | 9.73e5 | 1.14e6
Ccn | DRSC10062 | 1.58e6 | 1.53e6 | 1.24e6 | 1.27e6
Ccn | DRSC10063 | 1.54e6 | 1.77e6 | 1.31e6 | 1.51e6
Fbw5 (F-box and WD repeat domain containing 5) | DRSC03146 | 1.53e6 | 1.49e6 | 1.10e6 | 1.28e6
CG32486 | DRSC08413 | 1.35e6 | 1.36e6 | 1.05e6 | 8.84e5
CG32486 | DRSC08488 | 1.48e6 | 1.38e6 | 1.03e6 | 1.41e6
Or35a (Odorant receptor 35a) | DRSC03389 | 1.56e6 | 1.72e6 | 1.22e6 | 1.39e6
CG6178 | DRSC15984 | 1.56e6 | 1.56e6 | 1.15e6 | 1.25e6
CG6465 | DRSC16046 | 1.58e6 | 1.66e6 | 1.42e6 | 1.52e6
Nelf-E (Negative elongation factor E) | DRSC10567 | 1.35e6 | 1.47e6 | 9.87e5 | 1.11e6
chico | DRSC03531 | 1.31e6 | 1.37e6 | 1.09e6 | 1.24e6
CG2955 | DRSC00552 | 1.54e6 | 1.52e6 | 7.86e5 | 8.35e5
CG14538 (retired record) | DRSC02396 | 1.63e6 | 1.60e6 | 1.21e6 | 1.32e6
Ranbp21 | DRSC19447 | 1.44e6 | 1.52e6 | 1.04e6 | 1.13e6

Targets above whose gene name begins with A or a (2):
Target gene | amplicon | Kc cell number, rep 1 | Kc cell number, rep 2 | S2R+ cell number, rep 1 | S2R+ cell number, rep 2
Alg7 | DRSC02833 | 1.44e6 | 1.62e6 | 1.23e6 | 1.34e6
Alg7 | DRSC02834 | 1.62e6 | 1.68e6 | 1.33e6 | 1.50e6
